For this assay, the target named is Human TIM-3 coupled to phycoerythrin (human) (UniProt Q8TDQ0). Briefly: blocking assay, flow cytometry: human TIM-3-PE pre-incubated with antibody, then added to galectin-9-expressing MOLT3 cells; blocked ligand galectin-9.

Sequences of proteins named here, by UniProt entry; tags and fusion partners are left off. Residues count along the entry.
UniProt Q8TDQ0, residues 22-200: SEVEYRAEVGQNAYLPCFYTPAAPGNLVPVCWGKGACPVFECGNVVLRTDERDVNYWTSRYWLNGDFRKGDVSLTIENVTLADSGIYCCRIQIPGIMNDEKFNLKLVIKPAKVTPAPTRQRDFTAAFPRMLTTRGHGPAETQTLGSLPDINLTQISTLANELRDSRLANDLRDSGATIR

In US20190185564A1 one finds binding data, which are given here for 2 molecules.

Results are given in words; binding and its absence hold for the method and conditions named. Some binding calls cover weakened binding; strength is not graded here.

B1: anti-TIM-3 antibody clone B10 (antibody, V domains shown)
VH: QVQLQESGPGLVKASETLSLTCTVSGGSIGSSDYYWGWIRQPPGKGLEWIGSIYYSGSTYYNPSLKSRVTMSVDTPNNQFSLKLSSVTAADTAVYYCARGEHRGEFDYWGQGTLVTVSS
VL: EIVLTQSPATLSFSPGERATLSCRASQSVGSYLAWYQQRPGQAPRPLIYDATNRATGIPTRFSGSGSGTDFTLTISSLEPEDFATYYCQHRRTFGRGTKLEIK
In the case of B1, the binding entry is on record as “binds”.

B2: anti-TIM-3 antibody clone A11 (antibody, V domains shown)
VH: QVQLQQWGAGLLKPSETLSLTCAVYGGSFSGYYWSWIRQPPGKGLEWIGEINHSGSTNYNPSLKSRVTISVDTSKNQFSLKLSSVTAADTAVYYCARGYVAGFDYWGQGTLVTVSS
VL: QSVVTQPPSVSAAPGQKVTISCSGSSSNIGNNYVSWYQQLPGTAPKLLIYGNNWRPSGIPDRFSGSKSGTSATLAISGLQTGDEADYYCETWDSSLSAGVFGGGTKLTVL
On to B2, for which the binding entry is listed as “binds”.
